Laboratory results: PubChem BioAssay AID1224830 (NIAID, 2016)
The whole screen tested about 18,000 reagents; this is an unselected part. About 2,900 of all reagents (16%) were called active. 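Calls are made per well; low scores hint the gene aids the LPS response, high scores that it dampens it.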 Unmarked entries are inactive. Reagents against one gene are numbered here. Repeated entries: four replicate wells of each siRNA pool. No sequences are given here.

Purpose: 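Host factors that control LPS-induced TNF expression in human macrophages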 (primary screen)
System: human THP-1 monocytic leukaemia cells, TNF dual-luciferase reporter clone, PMA-differentiated to macrophage-like cells
Knock-down reagent: siRNA pool against human genes, 50 nM
Duration: LPS for 4 h, given about 3 days after siRNA transfection
Challenge: bacterial LPS (TLR4 ligand), 10 ng/ml
Detection: 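Ratio of firefly to renilla light, scaled to the plate median and expressed as a robust z-score per replicate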
Scale: TNF reporter robust z-score: higher = stronger TNF reporter response to LPS
Rule for the call: 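a well is active when its z-score exceeds 2.8 or falls below -1.5; control wells carry no call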

no.	Gene	reagent no.	TNF reporter robust z-score
1	AGAP4	1	-0.06
2	AGAP4	1	-0.16
3	AGAP4	1	-0.38
4	AGAP4	1	0.47
5	AGAP4	2	0.19
6	AGAP4	2	-0.37
7	AGAP4	2	-1.07
8	AGAP4	2	0.87
9	RAP1GAP2	1	-0.43
10	RAP1GAP2	1	-0.95
11	RAP1GAP2	1	-0.57
12	RAP1GAP2	1	-0.21
13	FLACC1	1	-0.31
14	FLACC1	1	0.31
15	FLACC1	1	1.84
16	FLACC1	1	0.55
17	OR10H2	1	0.42
18	OR10H2	1	0.4
19	OR10H2	1	-0.99
20	OR10H2	1	-0.49
21	H3C15	1	-0.55
22	H3C15	1	-1.13
23	H3C15	1	0.01
24	H3C15	1	-0.12
25	GPA33	1	-1.77 (active)
26	GPA33	1	-0.8
27	GPA33	1	-0.91
28	GPA33	1	0.1
29	OR5AN1	1	0.39
30	OR5AN1	1	0.21
31	OR5AN1	1	-1
32	OR5AN1	1	1.1
33	DOCK10	1	-1.36
34	DOCK10	1	-1.01
35	DOCK10	1	-0.1
36	DOCK10	1	-0.83
37	PAAF1	1	0.5
38	PAAF1	1	-1.79 (active)
39	PAAF1	1	-1.73 (active)
40	PAAF1	1	-1.07
41	VIL1	1	1.62
42	VIL1	1	0.37
43	VIL1	1	1.47
44	VIL1	1	1.35
45	KNOP1	1	0.35
46	KNOP1	1	0.29
47	KNOP1	1	0.37
48	KNOP1	1	-0.33
49	LAS1L	1	0.17
50	LAS1L	1	-0.22
51	LAS1L	1	-0.09
52	LAS1L	1	1.63
53	STRAP	1	-1.43
54	STRAP	1	0.76
55	STRAP	1	-0.23
56	STRAP	1	0.42
57	VAMP3	1	1.34
58	VAMP3	1	-0.47
59	VAMP3	1	0.3
60	VAMP3	1	0.52
61	TOR1B	1	0.35
62	TOR1B	1	3.08 (active)
63	TOR1B	1	0.25
64	TOR1B	1	0.13
65	PKIG	1	-1.68 (active)
66	PKIG	1	-1.47
67	PKIG	1	-1.61 (active)
68	PKIG	1	-1.35
69	RIPK2	1	0.29
70	RIPK2	1	0.71
71	RIPK2	1	0.64
72	RIPK2	1	1.64
73	SPX	1	0.65
74	SPX	1	1.28
75	SPX	1	-0.34
76	SPX	1	0.99
77	PDCD5	1	-0.96
78	PDCD5	1	0.89
79	PDCD5	1	-0.3
80	PDCD5	1	1.21
81	SLC45A4	1	1.29
82	SLC45A4	1	0.86
83	SLC45A4	1	1.43
84	SLC45A4	1	1.16
85	EPB41L3	1	0.29
86	EPB41L3	1	-0.01
87	EPB41L3	1	-0.48
88	EPB41L3	1	0.22
89	IFNA8	1	-0.72
90	IFNA8	1	-0.08
91	IFNA8	1	-0.71
92	IFNA8	1	-0.23
93	C3orf22	1	3.52 (active)
94	C3orf22	1	0.53
95	C3orf22	1	-0.72
96	C3orf22	1	0.64
97	WDR44	1	0.23
98	WDR44	1	0.33
99	WDR44	1	1.4
100	MPP1	1	-1.06
101	MPP1	1	-0.42
102	MPP1	1	-0.52
103	MPP1	1	0.71
104	NFATC1	1	2.5
105	NFATC1	1	0.8
106	NFATC1	1	1.14
107	NFATC1	1	1.88
108	TSEN54	1	0.01
109	TSEN54	1	-0.23
110	TSEN54	1	-0.57
111	TSEN54	1	-1.01
112	CFAP100	1	2.01
113	CFAP100	1	1.03
114	CFAP100	1	0.62
115	CFAP100	1	0.08
116	TRIM45	1	-0.6
117	TRIM45	1	-0.9
118	TRIM45	1	-1.43
119	TRIM45	1	1.03
120	TMEM86B	1	1.91
121	TMEM86B	1	3.08 (active)
122	TMEM86B	1	2.97 (active)
123	TMEM86B	1	0.04
124	XPO7	1	-0.39
125	XPO7	1	-1.01
126	XPO7	1	-0.17
127	XPO7	1	0.55
128	HBZ	1	-0.67
129	HBZ	1	0.38
130	HBZ	1	-0.26
131	HBZ	1	1.36
132	TIMP4	1	1.32
133	TIMP4	1	1.2
134	TIMP4	1	-0.15
135	TIMP4	1	1.21
136	CYB5D1	1	-0.88
137	CYB5D1	1	-0.34
138	CYB5D1	1	-0.09
139	CYB5D1	1	0.16
140	TMEM161B	1	0.19
141	TMEM161B	1	0.73
142	TMEM161B	1	0.46
143	TMEM161B	1	0.89
